For at least one entry, the source does not settle the construct or the ends of the probe. A negative result means that nothing was seen under these conditions. Protein sequences can lack the tags named with them.

The data set has as its system T1, PnpM-His6 (Pseudomonas sp. strain WBC-3).
T1 sequence (looked up, limits assumed): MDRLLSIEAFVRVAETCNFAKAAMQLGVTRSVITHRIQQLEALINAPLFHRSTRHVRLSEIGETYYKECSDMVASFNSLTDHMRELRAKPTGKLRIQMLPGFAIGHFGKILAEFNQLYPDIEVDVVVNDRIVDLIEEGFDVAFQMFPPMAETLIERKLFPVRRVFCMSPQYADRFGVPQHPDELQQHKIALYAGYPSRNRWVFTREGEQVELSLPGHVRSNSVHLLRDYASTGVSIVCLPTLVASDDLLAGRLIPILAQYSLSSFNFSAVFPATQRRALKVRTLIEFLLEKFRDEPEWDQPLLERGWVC
Kind of data set: EMSA. The conditions noted are these: EMSA: 0.03 uM DNA, 0-2.0 uM PnpM-His6, +/-0.3 mM PNP, 30 min room temperature, 6% native PAGE at 4 C in Tris-borate, binding buffer, salt and pH not given, recombinant protein, protein details: C-terminal His6, probe letters rebuilt from the primers and the genome. In general terms: Mobility shift assays separate free from complexed probe on a gel.

For “ACATGCATGCATTCGGACTGGTCGATAAACTCGGCAAAGCGCAAAACCCCGTCAAACAATGATCAAACCTGTGGGAGCAAAGCTTGCTCGCGATAGCGGTGTGTCAGTCAACATTTGTGCTGAATGACGCTTCGCTATCGCGAGCAAGCTTTGCTCCCACAGGTGTCCCACAGGTGTCTGTGCTGTTGATCGTTCGCGTTTCGCAAACACAATTGTCGGCCGGCGCCTAATTGTTCCCCTCATCAACGCGACGTACCGTGATCTCACCGCATTACAACAAAAAAGGTGAAATCATGGGATCCCG (double strand) [PpnpC (EMSA fragment)]”, the binding result reads like this: (0.3 mM PNP, 0.03 uM DNA, fully bound at 2.0 uM PnpM) “binds”; (no PNP, 0.03 uM DNA, fully bound at 2.0 uM PnpM) “binds”. As to “CGGGATCCCATTTTATTTTTCCTATAGAAAACGGCTCGCAGGGAAAGCCTGCTACTTGGAATGTAATCCAGGCAATTGCAGGCAACTGGATTCAGCCTAAACCTTCAGGAATTATCGAAGCAATGCGATTTAGTTTGATTTTCCCGAACTAGCCGATTGCATTTTCGATCGTTCTAATTTGCCAACCGGAACGTTTGCAAATACTGAACCTTGATACGGTTGTGTTGTTTTCTTTGTCTGCTCATGCTGCAACAAGCAACCACCGCAAGGTGTTTGAACAGGTTTAAGTGCCACGCACACATAAGCCGCATGCATGT (double strand) [PpnpA]”, the binding result (0.3 mM PNP, up to 2.0 uM PnpM) is “no binding”. For “CGGGATCCCATGTCGGTTTCCTTGATAAAAATATTGTCTTATTTCTTTCGGCTTATGTGTGCGTGGCACTTAAACCTGTTCAAACACCTTGCGGTGGTTGCTTGTTGCAGCATGAGCAGACAAAGAAAACAACACAACCGTATCAAGGTTCAGTATTTGCAAACGTTCCGGTTGGCAAATTAGAACGATCGAAAATGCAATCGGCTAGTTCGGGAAAATCAAACTAAATCGCATTGCTTCGATAATTCCTGAAGGTTTAGGCTGAATCCAGTTGCCTGCAATTGCCTGGATTACATTCCAAGTAGCAGGCTTTCCCTGCGAGCCGTTTTCTATAGGAAGCATGCATGT (double strand) [PpnpB]”, the binding result (0.3 mM PNP, up to 2.0 uM PnpM) was “no binding”.
